Results are given in words; binding and its absence hold for the method and conditions named. Binding can be weak; no strength is given. For some assays here: In cells and extracts the contact can be indirect.
Assays:
[1] = target: His6-tagged CspA of B. mayonii MN14-1420 (CspA-like protein Bmayo_04535) (Borrelia mayonii MN14-1420); experiment: far-Western, overlay or dot blot; purified CspA of B. mayonii MN14-1420 separated by 10% Tris/tricine SDS-PAGE, on nitrocellulose strips, incubated with FH constructs of different CCP domains; polyclonal anti-FH antibody; both purified
[2] = target: His6-tagged CspA of B. mayonii MN14-1420 (CspA-like protein Bmayo_04535) (Borrelia mayonii MN14-1420); experiment: ELISA; His6-tagged proteins (5 μg/ml) coated on MaxiSorp plates in PBS at 4°C; FH or FHL-1 (5 μg/ml) added for 1 h at RT; detected with goat anti-FH antiserum; both purified
complement component C9 = complement component C9 (UniProt P02748); experiment: C9 polymerisation assay (SDS-PAGE, silver staining); C9 (3 μg) incubated with 0.25–10 μg of recombinant protein or BSA, then 50 μM ZnCl2 to induce auto-polymerisation; monomeric and SDS-resistant polymeric C9 on Tris/Tricine SDS gels; both purified
[3] = target: CspA of B. mayonii MN14-1420 produced by B. garinii G1 (transformant G1/pCspA_Bmayo) (Borrelia mayonii MN14-1420); experiment: serum adsorption assay; viable spirochetes (2 × 10^9) in 750 μl NHS-EDTA for 1 h at RT; washed; bound proteins eluted with 0.1 M glycine-HCl pH 2.0; Western blot with anti-FH
[4] = target: CspA of B. mayonii MN14-1420 produced by B. garinii G1 (transformant G1/pCspA_Bmayo) (Borrelia mayonii MN14-1420); experiment: ELISA; spirochetes (2 × 10^7 cells in 100 μl PBS) immobilised on MaxiSorp plates at 4°C overnight; purified FH; anti-FH antiserum; only the binder purified
[5] = target: His6-tagged CspA of B. mayonii MN14-1420 (CspA-like protein Bmayo_04535) (Borrelia mayonii MN14-1420); experiment: pull-down; His6-tagged protein (40 μg) on magnetic beads (Dynabeads) incubated with 500 μl NHS-EDTA for 1 h on ice; elution with 100 mM glycine-HCl pH 2.0; silver staining and Western blot with anti-FH; only the target purified
[6] = target: CspA of B. mayonii MN14-1420 produced by B. garinii G1 (transformant G1/pCspA_Bmayo) (Borrelia mayonii MN14-1420); experiment: far-Western, overlay or dot blot; borrelial cell lysates separated by 10% Tris/tricine SDS-PAGE, on nitrocellulose, incubated with NHS as source of FH; anti-FH antiserum

Sequences of proteins named here, by UniProt entry; tags and fusion partners are left off. A change or cut given only in a name is not applied to a line headed by its entry. A line that says so, or that is headed by a name, gives the form on record, which may keep a tag or linker. Residues count along the entry.
UniProt P02748, residues 22-559: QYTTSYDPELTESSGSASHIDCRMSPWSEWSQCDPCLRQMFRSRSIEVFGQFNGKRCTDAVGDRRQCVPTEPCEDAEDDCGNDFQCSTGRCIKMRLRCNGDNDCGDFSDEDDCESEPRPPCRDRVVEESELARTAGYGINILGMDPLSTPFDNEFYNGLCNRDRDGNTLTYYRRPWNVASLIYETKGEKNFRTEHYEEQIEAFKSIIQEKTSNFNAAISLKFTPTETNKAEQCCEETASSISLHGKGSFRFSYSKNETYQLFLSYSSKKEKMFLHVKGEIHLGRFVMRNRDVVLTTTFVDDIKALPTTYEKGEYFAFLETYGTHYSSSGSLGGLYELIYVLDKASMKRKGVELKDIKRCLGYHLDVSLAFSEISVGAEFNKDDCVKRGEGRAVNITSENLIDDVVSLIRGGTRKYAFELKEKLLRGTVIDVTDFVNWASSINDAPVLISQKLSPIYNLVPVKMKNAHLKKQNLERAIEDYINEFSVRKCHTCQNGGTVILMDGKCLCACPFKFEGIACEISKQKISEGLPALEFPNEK
complement regulator factor H (FH) (P08603, residues 19-1231): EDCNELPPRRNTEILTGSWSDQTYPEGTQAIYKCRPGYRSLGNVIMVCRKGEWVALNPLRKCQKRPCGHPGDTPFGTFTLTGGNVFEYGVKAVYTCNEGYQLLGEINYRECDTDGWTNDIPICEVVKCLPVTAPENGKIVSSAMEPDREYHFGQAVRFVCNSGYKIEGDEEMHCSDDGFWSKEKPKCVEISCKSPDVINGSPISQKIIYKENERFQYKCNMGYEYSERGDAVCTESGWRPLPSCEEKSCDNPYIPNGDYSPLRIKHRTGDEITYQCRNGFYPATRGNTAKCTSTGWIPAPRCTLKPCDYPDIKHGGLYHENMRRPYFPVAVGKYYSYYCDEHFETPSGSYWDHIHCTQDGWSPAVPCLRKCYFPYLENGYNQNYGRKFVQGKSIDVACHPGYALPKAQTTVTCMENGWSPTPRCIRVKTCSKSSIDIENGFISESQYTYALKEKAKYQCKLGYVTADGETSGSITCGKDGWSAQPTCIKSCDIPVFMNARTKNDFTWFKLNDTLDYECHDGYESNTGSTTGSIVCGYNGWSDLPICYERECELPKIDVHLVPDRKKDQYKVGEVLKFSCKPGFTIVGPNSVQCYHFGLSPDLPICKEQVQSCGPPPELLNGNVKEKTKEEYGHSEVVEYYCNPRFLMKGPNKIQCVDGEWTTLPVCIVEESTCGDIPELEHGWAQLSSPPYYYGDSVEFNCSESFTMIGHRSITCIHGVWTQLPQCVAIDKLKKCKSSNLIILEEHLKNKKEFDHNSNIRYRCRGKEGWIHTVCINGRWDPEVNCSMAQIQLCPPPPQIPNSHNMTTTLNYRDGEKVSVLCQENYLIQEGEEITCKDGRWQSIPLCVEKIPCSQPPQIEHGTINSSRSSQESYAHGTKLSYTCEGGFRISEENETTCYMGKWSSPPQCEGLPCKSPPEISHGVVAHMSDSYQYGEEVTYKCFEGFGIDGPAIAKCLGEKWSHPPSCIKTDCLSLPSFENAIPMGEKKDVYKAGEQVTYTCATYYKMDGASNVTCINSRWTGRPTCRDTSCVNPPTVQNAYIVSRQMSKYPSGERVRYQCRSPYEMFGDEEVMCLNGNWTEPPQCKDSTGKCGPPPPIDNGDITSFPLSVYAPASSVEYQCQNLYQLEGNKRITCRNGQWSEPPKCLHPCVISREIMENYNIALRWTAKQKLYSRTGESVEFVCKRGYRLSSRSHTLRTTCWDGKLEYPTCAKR
FH-like protein 1 (FHL-1) (P08603-2, form named): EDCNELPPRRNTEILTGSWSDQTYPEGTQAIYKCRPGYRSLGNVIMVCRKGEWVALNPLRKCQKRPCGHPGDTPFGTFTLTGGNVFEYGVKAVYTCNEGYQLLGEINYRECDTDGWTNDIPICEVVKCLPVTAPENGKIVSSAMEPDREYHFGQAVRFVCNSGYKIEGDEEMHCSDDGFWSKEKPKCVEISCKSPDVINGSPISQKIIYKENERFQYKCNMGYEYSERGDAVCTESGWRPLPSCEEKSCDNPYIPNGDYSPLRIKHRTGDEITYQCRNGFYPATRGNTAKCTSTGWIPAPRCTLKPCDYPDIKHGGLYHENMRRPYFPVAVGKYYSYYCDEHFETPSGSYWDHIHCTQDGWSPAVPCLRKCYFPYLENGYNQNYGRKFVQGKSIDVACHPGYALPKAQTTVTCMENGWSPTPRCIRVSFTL

Substance | binding [1] | other results
FH construct FH15-19 (from UniProt P08603) (domain or fragment) | binds weakly | 
FH construct FH19-20 (from UniProt P08603) (domain or fragment) | binds weakly | 
FH construct FH1-5 (from UniProt P08603) (domain or fragment) | binds | 
FH construct FH1-6 (from UniProt P08603) (domain or fragment) | binds | 
FH-like protein 1 (FHL-1) (from UniProt P08603-2 19-449) | binds | binding [2]: binds
His6-tagged CspA of B. mayonii MN14-1420 (CspA-like protein Bmayo_04535) (from UniProt A0AAC9KV93) |  | binding (complement component C9): binds
complement regulator factor H (FH) (from UniProt P08603 19-1231) |  | binding [3]: binds; binding [4]: binds; binding [5]: binds; binding [2]: binds; binding [6]: binds
FH construct FH15-20 (from UniProt P08603) (domain or fragment) | binds | 
FH construct FH8-20 (from UniProt P08603) (domain or fragment) | binds weakly | 

Source: article PMC6902028, “Elucidating the Immune Evasion Mechanisms of Borrelia mayonii, the Causative Agent of Lyme Disease” (Frontiers in Immunology, 2019)
